Measurements taken from publication PMC9044549 (RSC Advances, 2021).

Test system: MCF-7 breast cancer cells
Assay: In vitro anti-proliferative activity, MTT assay
Assay type: cell-based
Details: Homo sapiens, MCF7, read-out: In vitro anti-proliferative activities MCF-7 IC50

## COc1cc2c(c(OC)c1OC)-c1ccc(OC)c(=O)cc1[C@@H](NC(C)=O)CC2 [Colchicine, colchicine, reference compound]
  IC50: 10.4 ± 0.3 µM
